Results from patent US7659400B2, “Radiolabelled benzamide analogues, their synthesis and use in diagnostic imaging” (Washington University, priority 2003, dated 2010).

Tested on: EMT-6 tumors
Assay: microPET/microCT imaging of EMT-6 tumors
Assay type: in vivo, female Balb/c mice
Conditions: ~0.25 mCi via tail vein, imaged 1 h later

Compound	identification of EMT-6 tumors by microPET
COc1cc2c(cc1OC)CN(CCCCNC(=O)c1cc(I)cc(OC)c1OCC[18F])CC2 [[^18F]3f]	readily identifiable
COc1cc2c(cc1OC)CN(CCCCNC(=O)c1cc(C)ccc1OCC[18F])CC2 [[^18F]3c]	readily identifiable
